US20030120051A1
No constants are given. Whether binding was seen depends on the method and setting. For some assays here: In cells and extracts the contact can be indirect. Some entries that bind do so weakly or less than the wild type. Where a sequence is shown, tags or fusion partners need not be part of it.

Amino acid sequences for entries named in this document (tags omitted). A change or cut given only in a name is not applied to a line headed by its entry.
UniProt P23471: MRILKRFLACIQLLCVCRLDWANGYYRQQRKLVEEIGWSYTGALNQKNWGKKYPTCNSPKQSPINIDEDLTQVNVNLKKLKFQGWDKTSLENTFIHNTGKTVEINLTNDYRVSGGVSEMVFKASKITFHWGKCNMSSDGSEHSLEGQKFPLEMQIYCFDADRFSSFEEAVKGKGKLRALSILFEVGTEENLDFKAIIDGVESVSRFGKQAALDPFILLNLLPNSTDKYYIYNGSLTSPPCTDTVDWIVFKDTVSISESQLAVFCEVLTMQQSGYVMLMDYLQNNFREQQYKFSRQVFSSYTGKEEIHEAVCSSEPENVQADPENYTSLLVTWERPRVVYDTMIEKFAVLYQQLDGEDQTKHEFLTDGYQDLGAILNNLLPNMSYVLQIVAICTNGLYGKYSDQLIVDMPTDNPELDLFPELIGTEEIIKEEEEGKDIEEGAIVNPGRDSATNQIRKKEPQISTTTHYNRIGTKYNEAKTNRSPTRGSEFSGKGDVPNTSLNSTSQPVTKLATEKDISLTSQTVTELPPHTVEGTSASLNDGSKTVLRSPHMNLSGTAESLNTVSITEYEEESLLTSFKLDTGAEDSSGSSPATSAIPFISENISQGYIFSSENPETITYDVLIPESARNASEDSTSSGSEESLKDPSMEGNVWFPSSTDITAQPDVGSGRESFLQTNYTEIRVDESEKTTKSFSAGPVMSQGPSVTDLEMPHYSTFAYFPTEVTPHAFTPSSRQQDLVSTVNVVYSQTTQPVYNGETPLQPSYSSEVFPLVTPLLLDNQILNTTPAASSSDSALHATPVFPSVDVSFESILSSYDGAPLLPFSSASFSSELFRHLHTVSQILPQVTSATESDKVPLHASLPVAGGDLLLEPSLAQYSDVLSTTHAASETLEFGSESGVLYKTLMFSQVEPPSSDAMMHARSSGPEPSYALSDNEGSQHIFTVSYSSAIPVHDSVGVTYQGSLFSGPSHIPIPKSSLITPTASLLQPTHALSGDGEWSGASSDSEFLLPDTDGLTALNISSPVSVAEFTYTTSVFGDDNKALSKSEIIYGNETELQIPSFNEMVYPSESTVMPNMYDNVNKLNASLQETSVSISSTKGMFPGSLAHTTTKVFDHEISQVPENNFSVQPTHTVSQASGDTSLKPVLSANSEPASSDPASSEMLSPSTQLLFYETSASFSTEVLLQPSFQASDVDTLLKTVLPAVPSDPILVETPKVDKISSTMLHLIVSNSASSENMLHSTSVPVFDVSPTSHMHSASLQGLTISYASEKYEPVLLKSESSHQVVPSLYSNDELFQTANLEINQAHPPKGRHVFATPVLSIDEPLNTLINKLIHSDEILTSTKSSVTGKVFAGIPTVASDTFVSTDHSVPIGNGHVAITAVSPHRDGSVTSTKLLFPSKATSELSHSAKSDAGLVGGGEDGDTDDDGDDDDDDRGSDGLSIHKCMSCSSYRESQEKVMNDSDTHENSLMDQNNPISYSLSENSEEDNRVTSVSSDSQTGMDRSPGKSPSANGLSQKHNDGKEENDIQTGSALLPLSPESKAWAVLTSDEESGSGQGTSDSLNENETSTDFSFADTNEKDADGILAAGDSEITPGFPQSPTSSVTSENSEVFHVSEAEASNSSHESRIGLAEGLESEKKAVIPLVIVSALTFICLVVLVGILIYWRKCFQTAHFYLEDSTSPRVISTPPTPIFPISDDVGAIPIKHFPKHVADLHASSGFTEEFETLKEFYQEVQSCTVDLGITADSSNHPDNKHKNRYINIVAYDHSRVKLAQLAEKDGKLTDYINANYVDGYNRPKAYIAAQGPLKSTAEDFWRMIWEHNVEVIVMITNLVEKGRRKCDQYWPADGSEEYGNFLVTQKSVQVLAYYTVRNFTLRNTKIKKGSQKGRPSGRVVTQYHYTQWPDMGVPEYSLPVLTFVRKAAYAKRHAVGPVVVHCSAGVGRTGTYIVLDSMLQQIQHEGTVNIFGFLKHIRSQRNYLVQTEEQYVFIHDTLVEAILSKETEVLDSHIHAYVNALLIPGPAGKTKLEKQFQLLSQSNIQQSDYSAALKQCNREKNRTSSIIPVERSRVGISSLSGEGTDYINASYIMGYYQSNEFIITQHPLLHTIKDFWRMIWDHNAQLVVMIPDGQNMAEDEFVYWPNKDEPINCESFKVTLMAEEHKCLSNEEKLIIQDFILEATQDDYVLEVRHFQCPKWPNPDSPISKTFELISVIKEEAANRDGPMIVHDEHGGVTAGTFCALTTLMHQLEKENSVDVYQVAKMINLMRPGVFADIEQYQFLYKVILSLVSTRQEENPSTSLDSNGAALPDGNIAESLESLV

T1: HA-tagged rat CASPR/p190 (pCM190HA) (rat) (UniProt P97846)
T1 sequence: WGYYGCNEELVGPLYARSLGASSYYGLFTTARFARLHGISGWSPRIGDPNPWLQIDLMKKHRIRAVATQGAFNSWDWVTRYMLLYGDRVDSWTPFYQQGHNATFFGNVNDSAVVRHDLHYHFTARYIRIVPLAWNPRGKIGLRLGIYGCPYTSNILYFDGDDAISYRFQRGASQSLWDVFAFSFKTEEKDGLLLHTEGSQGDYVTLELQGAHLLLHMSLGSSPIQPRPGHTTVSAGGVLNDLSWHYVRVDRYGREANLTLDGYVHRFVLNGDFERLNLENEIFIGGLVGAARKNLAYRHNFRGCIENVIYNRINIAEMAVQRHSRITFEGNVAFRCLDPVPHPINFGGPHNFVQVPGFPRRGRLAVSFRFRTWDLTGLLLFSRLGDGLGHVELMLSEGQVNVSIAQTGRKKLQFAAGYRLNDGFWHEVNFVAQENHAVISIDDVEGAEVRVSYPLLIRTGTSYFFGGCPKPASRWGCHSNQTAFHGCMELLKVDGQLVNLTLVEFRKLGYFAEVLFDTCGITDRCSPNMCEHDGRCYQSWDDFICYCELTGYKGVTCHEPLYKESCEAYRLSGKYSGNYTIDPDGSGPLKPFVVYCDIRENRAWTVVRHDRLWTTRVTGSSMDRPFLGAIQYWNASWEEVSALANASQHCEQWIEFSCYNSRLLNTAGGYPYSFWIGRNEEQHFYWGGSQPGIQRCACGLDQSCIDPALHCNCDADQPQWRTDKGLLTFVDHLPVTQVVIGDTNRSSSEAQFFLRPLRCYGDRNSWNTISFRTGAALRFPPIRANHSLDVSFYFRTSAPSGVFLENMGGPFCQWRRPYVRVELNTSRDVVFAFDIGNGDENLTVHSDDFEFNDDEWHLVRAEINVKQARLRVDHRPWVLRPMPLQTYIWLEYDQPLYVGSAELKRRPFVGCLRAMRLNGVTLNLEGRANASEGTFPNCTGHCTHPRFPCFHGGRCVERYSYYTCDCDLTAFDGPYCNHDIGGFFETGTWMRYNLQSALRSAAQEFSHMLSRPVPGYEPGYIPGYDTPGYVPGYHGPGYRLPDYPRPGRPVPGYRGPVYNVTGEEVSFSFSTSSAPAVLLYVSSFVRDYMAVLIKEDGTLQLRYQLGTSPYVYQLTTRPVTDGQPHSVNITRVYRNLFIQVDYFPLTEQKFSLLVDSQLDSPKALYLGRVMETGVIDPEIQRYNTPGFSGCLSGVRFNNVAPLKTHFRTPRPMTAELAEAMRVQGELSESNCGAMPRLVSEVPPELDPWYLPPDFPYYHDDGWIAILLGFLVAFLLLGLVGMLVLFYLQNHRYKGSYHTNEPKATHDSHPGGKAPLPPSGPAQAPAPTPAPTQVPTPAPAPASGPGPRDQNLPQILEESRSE


Key:
[1] = target: T1, HA-tagged rat CASPR/p190 (pCM190HA) (rat); assay: co-precipitation with βC-Fc from lysates of COS7 cells co-expressing contactin and tagged CASPR/p190
[2] = target: βC/EK chimeric receptor (CAH domain of RPTPβ alone fused to the transmembrane and intracellular domains of the EGF receptor) (human) (UniProt P23471+P00533); assay: Fc-fusion binding to transfected COS7 cells

Row | binding [1] | binding [2] | Binder
1 | binds |  | rat contactin (clone F8; p140 of GH3 cells) (receptor, UniProt Q63198 21-1001, looked up, GPI-anchored) EFTWHRRYGHGVSEEDKGFGPIFEEQPINTIYPEESLEGKVSLNCRARASPFPVYKWRMNNGDVDLTNDRYSMVGGNLVINNPDKQKDAGIYYCLASNNYGMVRSTEATLSFGYLDPFPPEDRPEVKVKEGKGMVLLCDPPYHFPDDLSYRWLLNEFPVFITMDKRRFVSQTNGNLYIANVESSDRGNYSCFVSSPSITKSVFSKFIPLIPIPERTTKPYPADIVVQFKDIYTMMGQNVTLECFALGNPVPDIRWRKVLEPMPTTAEISTSGAVLKIFNIQLEDEGLYECEAENIRGKDKHQARIYVQAFPEWVEHINDTEVDIGSDLYWPCVATGKPIPTIRWLKNGYAYHKGELRLYDVTFENAGMYQCIAENAYGTIYANAELKILALAPTFEMNPMKKKILAAKGGRVIIECKPKAAPKPKFSWSKGTEWLVNSSRILIWEDGSLEINNITRNDGGIYTCFAENNRGKANSTGTLVITNPTRIILAPINADITVGENATMQCAASFDPSLDLTFVWSFNGYVIDFNKEITNIHYQRNFMLDANGELLIRNAQLKHAGRYTCTAQTIVDNSSASADLVVRGPPGPPGGLRIEDIRATSVALTWSRGSDNHSPISKYTIQTKTILSDDWKDAKTDPPIIEGNMESAKAVDLIPWMEYEFRVVATNTLGTGEPSIPSNRIKTDGAAPNVAPSDVGGGGGTNRELTITWAPLSREYHYGNNFGYIVAFKPFDGEEWKKVTVTNPDTGRYVHKDETMTPSTAFQVKVKAFNNKGDGPYSLIAVINSAQDAPSEAPTEVGVKVLSSSEISVHWKHVLEKIVESYQIRYWAGHDKEAAAHRVQVTSQEYSARLENLLPDTQYFIEVGACNSAGCGPSSDVIETFTRKAPPSQPPRIISSVRSGSRYIITWDHVVALSNESTVTGYKILYRPDGQHDGKLFSTHKHSIEVPIPRDGEYVVEVRAHSDGGDGVVSQVKISGVSTLS
2 |  | binds | human contactin-Fc fusion protein (amino acids 1-1020 of human contactin fused to the IgG region) (Fc fusion, UniProt Q12860 21-1018, looked up, not shown: a dimerising Fc or GST) EFTWYRRYGHGVSEEDKGFGPIFEEQPINTIYPEESLEGKVSLNCRARASPFPVYKWRMNNGDVDLTSDRYSMVGGNLVINNPDKQKDAGIYYCLASNNYGMVRSTEATLSFGYLDPFPPEERPEVRVKEGKGMVLLCDPPYHFPDDLSYRWLLNEFPVFITMDKRRFVSQTNGNLYIANVEASDKGNYSCFVSSPSITKSVFSKFIPLIPIPERTTKPYPADIVVQFKDVYALMGQNVTLECFALGNPVPDIRWRKVLEPMPSTAEISTSGAVLKIFNIQLEDEGIYECEAENIRGKDKHQARIYVQAFPEWVEHINDTEVDIGSDLYWPCVATGKPIPTIRWLKNGYAYHKGELRLYDVTFENAGMYQCIAENTYGAIYANAELKILALAPTFEMNPMKKKILAAKGGRVIIECKPKAAPKPKFSWSKGTEWLVNSSRILIWEDGSLEINNITRNDGGIYTCFAENNRGKANSTGTLVITDPTRIILAPINADITVGENATMQCAASFDPALDLTFVWSFNGYVIDFNKENIHYQRNFMLDSNGELLIRNAQLKHAGRYTCTAQTIVDNSSASADLVVRGPPGPPGGLRIEDIRATSVALTWSRGSDNHSPISKYTIQTKTILSDDWKDAKTDPPIIEGNMEAARAVDLIPWMEYEFRVVATNTLGRGEPSIPSNRIKTDGAAPNVAPSDVGGGGGRNRELTITWAPLSREYHYGNNFGYIVAFKPFDGEEWKKVTVTNPDTGRYVHKDETMSPSTAFQVKVKAFNNKGDGPYSLVAVINSAQDAPSEAPTEVGVKVLSSSEISVHWEHVLEKIVESYQIRYWAAHDKEEAANRVQVTSQEYSARLENLLPDTQYFIEVGACNSAGCGPPSDMIEAFTKKAPPSQPPRIISSVRSGSRYIITWDHVVALSNESTVTGYKVLYRPDGQHDGKLYSTHKHSIEVPIPRDGEYVVEVRAHSDGGDGVVSQVKISGAPTLSPSLLGLLLPAFGILVYLEF
